From US20140308287A1 (SEA LANE BIOTECHNOLOGIES, published 2014)
These are yes or no findings as the source states them, for the method shown. Some results given as binding are weak or reduced against the parent protein; the word gives no strength.

Amino acid sequences for entries named in this document (tags omitted). A change or cut given only in a name is not applied to a line headed by its entry.
UniProt P21860: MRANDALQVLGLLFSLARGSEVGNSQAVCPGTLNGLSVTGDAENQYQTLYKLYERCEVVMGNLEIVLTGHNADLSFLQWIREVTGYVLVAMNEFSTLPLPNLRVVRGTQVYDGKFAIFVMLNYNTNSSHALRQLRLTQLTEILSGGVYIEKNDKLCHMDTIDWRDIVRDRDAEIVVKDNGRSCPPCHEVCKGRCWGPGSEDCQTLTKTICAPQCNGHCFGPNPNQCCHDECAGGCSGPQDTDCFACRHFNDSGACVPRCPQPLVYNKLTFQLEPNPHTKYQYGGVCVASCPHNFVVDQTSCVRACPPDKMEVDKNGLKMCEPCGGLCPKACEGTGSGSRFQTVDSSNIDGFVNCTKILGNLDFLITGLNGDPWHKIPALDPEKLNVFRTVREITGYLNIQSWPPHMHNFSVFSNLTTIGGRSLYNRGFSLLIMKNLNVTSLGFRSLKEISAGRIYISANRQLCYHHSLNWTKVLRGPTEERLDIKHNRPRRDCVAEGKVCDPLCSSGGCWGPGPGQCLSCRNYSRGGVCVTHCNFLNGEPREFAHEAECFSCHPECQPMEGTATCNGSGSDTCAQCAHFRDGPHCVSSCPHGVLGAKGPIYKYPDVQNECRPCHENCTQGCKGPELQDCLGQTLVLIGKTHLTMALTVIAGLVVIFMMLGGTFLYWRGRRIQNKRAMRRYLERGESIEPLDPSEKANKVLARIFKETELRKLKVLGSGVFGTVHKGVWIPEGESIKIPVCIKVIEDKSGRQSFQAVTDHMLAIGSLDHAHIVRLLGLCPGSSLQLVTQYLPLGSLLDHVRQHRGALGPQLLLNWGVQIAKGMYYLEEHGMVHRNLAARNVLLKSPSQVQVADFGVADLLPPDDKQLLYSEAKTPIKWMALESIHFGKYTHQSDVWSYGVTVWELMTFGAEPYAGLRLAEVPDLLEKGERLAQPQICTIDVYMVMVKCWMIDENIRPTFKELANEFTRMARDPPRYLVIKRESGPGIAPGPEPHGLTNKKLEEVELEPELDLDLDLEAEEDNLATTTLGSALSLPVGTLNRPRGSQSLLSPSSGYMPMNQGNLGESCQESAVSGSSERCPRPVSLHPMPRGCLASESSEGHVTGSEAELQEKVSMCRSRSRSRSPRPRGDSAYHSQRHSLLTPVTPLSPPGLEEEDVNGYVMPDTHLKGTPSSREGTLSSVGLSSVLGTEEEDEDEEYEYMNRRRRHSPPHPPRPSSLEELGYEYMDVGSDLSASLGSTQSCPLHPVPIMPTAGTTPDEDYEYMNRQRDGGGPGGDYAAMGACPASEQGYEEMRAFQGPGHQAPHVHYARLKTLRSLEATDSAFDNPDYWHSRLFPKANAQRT
UniProt Q61526: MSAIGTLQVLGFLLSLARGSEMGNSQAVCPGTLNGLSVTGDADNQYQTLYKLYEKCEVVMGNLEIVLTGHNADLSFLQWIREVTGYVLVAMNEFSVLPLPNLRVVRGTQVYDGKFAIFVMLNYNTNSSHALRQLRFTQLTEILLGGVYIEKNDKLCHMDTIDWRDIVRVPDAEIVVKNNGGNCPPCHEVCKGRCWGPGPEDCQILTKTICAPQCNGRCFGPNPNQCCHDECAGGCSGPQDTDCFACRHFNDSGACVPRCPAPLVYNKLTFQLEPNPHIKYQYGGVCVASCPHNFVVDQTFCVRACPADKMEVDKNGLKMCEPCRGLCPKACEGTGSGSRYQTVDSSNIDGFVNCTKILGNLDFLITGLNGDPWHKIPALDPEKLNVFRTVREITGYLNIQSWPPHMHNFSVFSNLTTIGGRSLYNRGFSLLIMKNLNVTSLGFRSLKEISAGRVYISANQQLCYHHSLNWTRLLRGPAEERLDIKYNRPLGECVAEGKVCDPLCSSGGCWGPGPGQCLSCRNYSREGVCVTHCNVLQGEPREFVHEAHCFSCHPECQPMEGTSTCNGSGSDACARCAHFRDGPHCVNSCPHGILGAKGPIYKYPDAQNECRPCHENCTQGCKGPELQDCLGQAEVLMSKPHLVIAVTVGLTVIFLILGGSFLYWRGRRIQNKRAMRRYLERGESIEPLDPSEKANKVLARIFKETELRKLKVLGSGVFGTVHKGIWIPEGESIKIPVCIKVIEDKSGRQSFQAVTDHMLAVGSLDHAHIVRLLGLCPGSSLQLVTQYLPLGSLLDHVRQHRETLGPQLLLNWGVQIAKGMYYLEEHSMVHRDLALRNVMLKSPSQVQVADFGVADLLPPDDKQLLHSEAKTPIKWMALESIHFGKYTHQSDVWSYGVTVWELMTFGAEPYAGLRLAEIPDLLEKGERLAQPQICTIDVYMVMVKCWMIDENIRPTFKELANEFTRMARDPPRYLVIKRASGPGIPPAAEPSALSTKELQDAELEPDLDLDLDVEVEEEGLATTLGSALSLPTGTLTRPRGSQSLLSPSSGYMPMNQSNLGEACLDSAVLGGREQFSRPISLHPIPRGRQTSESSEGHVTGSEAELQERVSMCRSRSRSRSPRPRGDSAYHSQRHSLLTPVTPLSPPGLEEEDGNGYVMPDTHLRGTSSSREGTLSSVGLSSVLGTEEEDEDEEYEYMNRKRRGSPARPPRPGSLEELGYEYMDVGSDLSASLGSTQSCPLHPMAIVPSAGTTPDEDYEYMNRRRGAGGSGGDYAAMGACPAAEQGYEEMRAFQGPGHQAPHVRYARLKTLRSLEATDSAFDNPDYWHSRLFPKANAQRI

Tests used:
[1] = target: human ErbB3 expressed on the surface of cells (BxPC-3 and other human tumor cell lines) (human) (UniProt P21860); test: flow cytometry on BxPC-3 cells
[2] = target: T1, human ErbB3-Fc (R&D Systems) (human, UniProt P21860 20-643); test: ELISA on plate-coated human ErbB3-Fc
T1 construct: Bought protein; also called wild-type ErbB3-Fc fusion; immobilized ErbB3; not shown: Fc part of the bought fusion protein; not described

[3] = target: human ErbB3 expressed on the surface of cells (BxPC-3 and other human tumor cell lines) (human) (UniProt P21860); test: flow cytometry, A431 cells (Example 52)
[4] = target: human ErbB3 expressed on the surface of cells (BxPC-3 and other human tumor cell lines) (human) (UniProt P21860); test: flow cytometry, BT474 cells (Example 52)
[5] = target: human ErbB3 expressed on the surface of cells (BxPC-3 and other human tumor cell lines) (human) (UniProt P21860); test: flow cytometry, SKBR3 cells (Example 52)
[6] = target: human ErbB3 expressed on the surface of cells (BxPC-3 and other human tumor cell lines) (human) (UniProt P21860); test: flow cytometry, MCF-7 cells (Example 52)
[7] = target: human ErbB3 expressed on the surface of cells (BxPC-3 and other human tumor cell lines) (human) (UniProt P21860); test: flow cytometry, BxPC-3 cells (Example 52)
[8] = target: T1, human ErbB3-Fc (R&D Systems); test: ELISA on plate-coated ErbB3-Fc with or without NRG
[9] = target: 2-3-3-3 chimeric ErbB2/ErbB3 Fc fusion (domain I from ErbB2, domains II-IV from ErbB3); test: ELISA, 10 nM SgG on plate-coated chimera, against wild-type ErbB3-Fc
[10] = target: 3-3-2-3 chimeric ErbB2/ErbB3 Fc fusion (domain III from ErbB2, domains I, II and IV from ErbB3); test: as above
[11] = target: 3-3-3-2 chimeric ErbB2/ErbB3 Fc fusion (domain IV from ErbB2, domains I-III from ErbB3); test: as above
[12] = target: T1, human ErbB3-Fc (R&D Systems); test: competition ELISA on plate-coated ErbB3-Fc, biotinylated test article
[13] = target: 2-3-3-3 chimeric ErbB2/ErbB3 Fc fusion (domain I from ErbB2, domains II-IV from ErbB3); test: ELISA on coated chimera 2-3-3-3, 10 nM SgG, biotinylated anti-VpreB and streptavidin HRP
[14] = target: 3-3-2-3 chimeric ErbB2/ErbB3 Fc fusion (domain III from ErbB2, domains I, II and IV from ErbB3); test: ELISA on coated chimera 3-3-2-3, 10 nM SgG, biotinylated anti-VpreB and streptavidin HRP
[15] = target: T1, human ErbB3-Fc (R&D Systems); test: ELISA on ErbB3-Fc, biotinylated SgG detected with streptavidin HRP, curve without competitor
[16] = target: T1, human ErbB3-Fc (R&D Systems); test: ELISA on coated wild-type ErbB3-Fc, 10 nM SgG, biotinylated anti-VpreB and streptavidin HRP
[17] = target: T1, human ErbB3-Fc (R&D Systems); test: ELISA on plate-coated human ErbB3-Fc with 1.85 nM NRG1-beta 1 ECD pre-bound or absent, anti-VpreB detection
[18] = target: T1, human ErbB3-Fc (R&D Systems); test: ELISA on plate-coated human ErbB3-Fc, detection biotinylated anti-VpreB and streptavidin HRP (Example 48)
[19] = target: human ErbB3 expressed on the surface of cells (BxPC-3 and other human tumor cell lines) (human) (UniProt P21860); test: flow cytometry on BxPC-3 cells, biotinylated goat anti-human IgG and Alexa488 streptavidin, 7AAD-negative gate
[20] = target: T1, human ErbB3-Fc (R&D Systems); test: ELISA on plate-coated human ErbB3-Fc, detection biotinylated anti-VpreB and streptavidin HRP (Example 52)
Source text: ELISA plates were coated with human ErbB3-Fc, EGFR-Fc (ErbB1) or ErbB2-Fc. Various concentrations of the indicated anti-ErbB3 SBPs were then allowed to bind to the coated wells. Binding was detected using a biotinylated antibody that specifically recognizes VpreB, followed by streptavidin HRP. Detection used a colorimetric HRP substrate.

[21] = target: T1, human ErbB3-Fc (R&D Systems); test: competition ELISA on human ErbB3-Fc; blocked ligand NRG1-beta 1 extracellular domain at 0.26 ug/ml, detected with biotinylated anti-NRG1-beta 1
[22] = target: T1, human ErbB3-Fc (R&D Systems); test: ELISA on plate-coated human ErbB3-Fc without NRG, detection biotinylated anti-VpreB and streptavidin HRP (Example 43); axis labelled log [Sab] nM, text speaks of SgGs
Source text: (§1) The resulting bound SgGs were detected using a biotinylated anti-VpreB, followed by streptavidin HRP colorimetric detection.

[23] = target: T1, human ErbB3-Fc (R&D Systems); test: ELISA on plate-coated human ErbB3-Fc with 1.85 nM NRG1-beta 1 extracellular domain added before the SBP (+ NRG), detection biotinylated anti-VpreB (Example 43); axis labelled log [Sab] nM
Source text: as §1

[24] = target: T2, murine ErbB3-Fc (R&D Systems) (mouse, UniProt Q61526 20-641); test: ELISA on plate-coated murine ErbB3-Fc
T2 construct: Bought protein; also called mouse ErbB3; not shown: Fc part of the bought fusion protein; not described

Measured: binding

B1: 2817-C01 surroglobulin (SgG) (other)
VH: EVQLLESGGGLVQPGGSLRLSCAASGFTFSTYAMNWVRQAPGKGLEWVALISSGGSYKYYADSVKGRFTISRDNSKNTLYLQMNSLRAEDTAVYYCAKDNFILLNSWFDYWGQGTLVTVSS
light: QPVLHQPPAMSSALGTTIRLTCTLRNDHDIGVYSVYWYQQRPGHPPRFLLRYFSQSDKSQGPQVPPRFSGSKDVARNRGYLSISELQPEDEAMYYCAMGARSSVTHVFGSGTQLTVLSQPKATPSVTLFPPSSEELQANKATLVCLMNDFYPGILTVTWKADGTPITQGVEMTTPSKQSNNKYAASSYLSLTPEQWRSRRSYSCQVMHEGSTVEKTVAPAECS
notes: also called anti-ErbB3 SgG
not listed: [24]
binds: all other assays above

B2: 2716-F05 surroglobulin (SgG) (other)
VH: EVQLLESGGGLVQPGGSLRLSCAASGFTFSNYWMHWVRQAPGKGLEWVALISGGGGNTYYADSVKGRFTISRDNSKNTLYLQMNSLRAEDTAVYYCAKDNEKNLYTWLDYWGQGTLVTVSS
light: B1 light
notes: also called anti-ErbB3 SgG
not listed: [3] | [4] | [5] | [6] | [7]
binds: all other assays above
